{"source": "patent US20080045582A1", "about": "“ENA-78 Gene Polymorphisms and Protein Concentrations as Diagnostic and Prognostic Tools” (priority 2006, published 2008)", "test_system": "ENA-78", "assay": "IL-1β-stimulated production of ENA-78 from human endothelial cells (fenofibrate)", "type": "cell-based", "conditions": "IL-1β stimulation; fenofibrate 10, 25, and 50 uM, relative to the other IL-1β-stimulated conditions (FIG. 8)", "note": "At least one compound was matched to its structure with a doubt left."}
{"smiles": "CC(C)OC(=O)C(C)(C)Oc1ccc(C(=O)c2ccc(Cl)cc2)cc1", "note": "[fenofibrate]", "values": [{"measurement": "endothelial ENA-78 production", "value": "reduction"}]}
